Assay results from paper doi:10.1101/2020.02.11.944363.
Results are given in words; binding and its absence hold for the method and conditions named. Binding seen in cells or lysates may run through a third protein. Some results given as binding are weak or reduced against the parent protein; the word gives no strength.

Chains of the proteins cited; added tags and fusions are not shown.
UniProt Q04206: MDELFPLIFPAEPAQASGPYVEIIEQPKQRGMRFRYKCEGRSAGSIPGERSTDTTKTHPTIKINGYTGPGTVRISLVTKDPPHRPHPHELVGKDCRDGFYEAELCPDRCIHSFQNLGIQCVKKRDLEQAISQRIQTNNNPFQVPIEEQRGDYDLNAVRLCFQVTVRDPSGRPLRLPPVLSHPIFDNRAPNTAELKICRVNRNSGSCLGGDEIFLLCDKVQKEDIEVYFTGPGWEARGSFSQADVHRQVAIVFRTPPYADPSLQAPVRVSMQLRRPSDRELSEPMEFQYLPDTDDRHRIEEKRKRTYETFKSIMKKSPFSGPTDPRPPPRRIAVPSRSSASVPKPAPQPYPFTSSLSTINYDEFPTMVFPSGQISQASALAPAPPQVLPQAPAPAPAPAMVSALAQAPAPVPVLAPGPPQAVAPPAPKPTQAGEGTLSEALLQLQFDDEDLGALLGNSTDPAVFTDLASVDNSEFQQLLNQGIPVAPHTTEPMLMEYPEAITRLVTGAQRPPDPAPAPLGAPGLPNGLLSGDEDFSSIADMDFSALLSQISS
UniProt P22677: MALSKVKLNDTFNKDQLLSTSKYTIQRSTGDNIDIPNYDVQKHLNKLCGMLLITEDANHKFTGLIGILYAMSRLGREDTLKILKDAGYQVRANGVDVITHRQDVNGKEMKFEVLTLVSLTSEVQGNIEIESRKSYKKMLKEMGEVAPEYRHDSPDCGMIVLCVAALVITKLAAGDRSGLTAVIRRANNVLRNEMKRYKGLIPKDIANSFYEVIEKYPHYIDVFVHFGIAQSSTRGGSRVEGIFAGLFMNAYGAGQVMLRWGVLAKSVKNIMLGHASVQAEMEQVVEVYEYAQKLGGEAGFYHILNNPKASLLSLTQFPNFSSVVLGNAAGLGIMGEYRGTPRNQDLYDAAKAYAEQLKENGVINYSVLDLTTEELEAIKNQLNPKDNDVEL

B1: bRSV phosphoprotein (P protein) (protein, UniProt P33454 1-241)
chain: MEKFAPEFHGEDANTKATKFLESLKGKFTSSKDSRKKDSIISVNSIDIELPKESPITSTNHNINQPSEINDTIAANQVHIRKPLVSFKEELPSSENPFTKLYKETIETFDNNEEESSYSYDEINDQTNDNITARLDRIDEKLSEIIGMLHTLVVASAGPTAARDGIRDAMVGLREEMIEKIRSEALMTNDRLEAMARLRDEESEKMTKDTSDEVKLTPTSEKLNMVLEDESSDNDLSLEDF

Columns and labels:
[1] = target: NF-κB subunit p65 (endogenous) (human (endogenous in 293T)) (UniProt Q04206); assay: co-IP
[2] = target: NF-κB subunit p65 expressed from a plasmid (pP65) (UniProt Q04206); assay: co-IP

Row | Molecule | binding [1] | binding [2]
1 | bRSV nucleoprotein (N protein) (from UniProt P22677 1-391) | binds | binds
2 | B1 | binds | binds
